Results taken from PubChem BioAssay AID1347423 (Functional Genomics Laboratory (NCATS/FGL), 2020).
In all, about 52,000 sequences went through this assay and about 210 (0.4%) were called active.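 The calls were made as follows: active = gene whose silencing raises cell survival under the drug, median off-target-corrected z-score across its silencing RNAs 2 or more; inactive = the rest.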 The list shows a part of the results.

Test: Resistance to Poly (ADP-Ribose) Polymerase inhibitor: Gene Identification via Genome-wide siRNA Screen
Settings: mouse BRCA2 R2336H ES cells, olaparib, CellTiter-Glo viability; hits give high values
Method in brief: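 Mouse BRCA2 R2336H ES cells were reverse-transfected with siRNA (20 nM final), treated at 48 h with 500 nM olaparib, and read by CellTiter-Glo after 72 h. Scores: MAD-based z per siRNA, median per gene, seed off-target correction.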

Sequence | z-score
CGUUCCAGGUGAAGAUCCUTT against Tbx10 | inactive: -0.102
GCCUGAGUCAUCCUCCAAATT against A630035I11Rik | inactive: -1.89
GGCCAACUCUAUUUUGAAGTT against 2310006J04Rik | inactive: 1.34
GCUAUAUAAAAGAACCGAUTT against Daxx | inactive: 0.706
CCCAGUCCUAAGGUUCAGATT against Armcx2 | inactive: -0.247
GCAGAAAGAAACGUAAAUGTT against AW494914 | inactive: 0.58
GGUGGCGGGAGAUGUUUUUTT against Pex6 | inactive: 0.391
GGACAAGUUUCGGAGAAUGTT against Kirrel3 | inactive: -1.89
GCUGCUCAGAGUUAUGAUGTT against 1700088E04Rik | inactive: 0.292
GGAAGUGAAUAAAUUCCUUTT against 4930579E17Rik | inactive: 0.54
GGUCGUAAGACAGUUGUCCTT against 4932438H23Rik | inactive: 0.322
CGUACUUAUUGUUCCUAUCTT against LOC626359 | inactive: 0.596
GAGAACGCGUUUUUGGGACTT against Defcr5 | inactive: -0.876
GGCAUGGUGUUUUACGUAUTT against Fgd6 | inactive: 0.215
GGUCGACCUCAGAGAUCUGTT against C030046M14Rik | inactive: 1.08
GGGAUGGAGAAUCAAGAUATT against B930062P21Rik | inactive: 0.732
CCGGAGUUGUACAAUGAUATT against Blk | inactive: -0.407
GCUUUAUGCAGACAAACACTT against Zbtb8 | inactive: -0.229
GGCCAUCUUUAGACAUAUUTT against Serpinf2 | inactive: -0.609
CGGGAAAUUCGUCUAUGUUTT against Arntl2 | inactive: -0.0806
GCCAAGUCUGCUUCACGAGTT against 6430598A04Rik | inactive: 0.907
UGCUGUUGGAGAGCAAAUATT against Slpi | inactive: -0.582
GCACGCUAUUGGCUAUGAGTT against BC052040 | inactive: 0.64
GGUUUCCAAACCCUUCACATT against Lor | inactive: 1.38
GUUCCCAUGUUCUUGGUGUTT against Olfr203 | inactive: -0.0434
CCCUUGGCCUUCCAAAUUGTT against Psg21 | inactive: 0.759

Quoted at random: 2 entries already listed
Sequence | z-score
GCUUUAUGCAGACAAACACTT against Zbtb8 | inactive: -0.229
GGCCAUCUUUAGACAUAUUTT against Serpinf2 | inactive: -0.609

Continued:

Sequence | z-score
GGUUAUUUUCUUCAUGACUTT against Fbxl19 | inactive: 3
UACCAGAAGUACCUGUCCCTT against Lbx1h | inactive: -2.2
CCACCUACUACAGAUAUGCTT against Wdr9 | inactive: 0.468
GCUGUGCAGCCACAAGUGATT against Gpr142 | inactive: -0.417
GGAGAAAGUGCGUCUAUAATT against Gdi3 | inactive: -1.21
GGAUUCCACUCAAGUAUAATT against Gpr35 | inactive: 1.55
GCUAAUCCUGACAUUUGGCTT against Crabp1 | inactive: 0.922
GGGACCACAAAUUUGAAAATT against A030012E10 | inactive: 0.0238
CUACACUCUCAUUAUGAACTT against Olfr138 | inactive: -1.1
CGAGUUUGACCGGACCAUCTT against Ssna1 | inactive: -0.716
GCUGUUAACUAUCUGGAUATT against Gpr73 | inactive: 0.148
GGUUUUUCGUUUCAAUGUGTT against Tgfb3 | inactive: 0.809
GCGAGUCUCACAUCAGUGATT against Zfp537 | inactive: -1.21
GGUGGAAAUUCCUUAAAUATT against Herc2 | inactive: -1.27
CCAUUGGUUAGUGAAGAUUTT against Tmprss11c | inactive: 1.35
GGAAGAUCUACAUCGUGGGTT against C630013N10Rik | inactive: -0.401
CCAUAGGAGAUCUGUUUUATT against Ripk4 | inactive: 0.959
GGCUUACUAACAGUUUUUGTT against Gem | inactive: -0.144
GUCUCCACUGGUGCCUAUATT against 2310056K19Rik | inactive: -1.53
GCCAUUCUUUGAAAAGAGGTT against 1190002A17Rik | inactive: 0.391
GGAAGAACAAAUAGGUCGATT against Defb14 | inactive: -0.617
GGAAAACCUUGUUCAAAGUTT against Npn3 | inactive: 0.791
CCUGAGGCUCUCAAAAACGTT against Matk | inactive: 0.526
CCAAGGUACAAUCUAACCATT against Pcoln3 | inactive: -1.33
GGACUGUGAUUGUUUCAGATT against Mep1a | inactive: 0.558
GGAGAGCUAUCACAAAACATT against Olfr1018 | inactive: 0.0569

Sequence | z-score
GCUUAAGGGAUAACAUAUUTT against Svs2 | inactive: -1.04
GCUGACAAGUGUAGCGUGUTT against Wtip | inactive: -0.218
AUAUUUCUGUCUUUCCUGGTT against Olfr1222 | inactive: -0.0417
GGCUCUUUGUUAAAUACCCTT against D930001I22Rik | inactive: 0.271
CGAACUGGCAUUCACAUGUTT against Tas2r120 | inactive: -0.75
GCCUAAAAAGAGUGGGUCATT against Mllt1 | inactive: -2.11
GGGUCUCAUUGACCACCAGTT against Plec1 | inactive: -1.95
GGUCAAGAACCUUUAACUGTT against Pabpc1 | inactive: -2.47
GGCAAAGUUGCCAGAUGAATT against 1110005A03Rik | inactive: -0.504
GGUGGCAGACUGUGUUUAUTT against BC025206 | inactive: -2.14
GGCCUCCUAAAAUCACAGCTT against Zfp292 | inactive: 0.59
CGGGCAGCUAGAUUUCCAATT against S100a11 | inactive: 0.568
GGGCACAUUCUCAAGACGUTT against Stx1b1 | inactive: -0.33
GGUGAAGAUUGACAAGAAATT against D2Wsu81e | inactive: 0.49
GCUACAAUCAAAAUUAUGCTT against 4930525K10Rik | inactive: 0.957
GGCAAGUUGACCGUGUUUUTT against Dtnb | inactive: 0.351
GGACAGGGAAAAGUCCCAUTT against Siat7f | inactive: -0.33
CCUGACCAUGCUGUUAUAUTT against Dppa1 | inactive: -2.09
GGAUCAAGUGGUCAAGGUATT against Ilvbl | inactive: -0.364
GAACUGAAGAAGCAGAUUGTT against G1p2 | inactive: -0.609
GGAAGAACCUUGUUUGUAUTT against Sectm1 | inactive: -1.21
GGUUCUUUCAGAGUUGGCCTT against Mrpl3 | inactive: 0.764
GCUUAUCAGGGUACAGCUUTT against Ipo7 | inactive: -1.21
GGAGCCCUUGCUCUUUAACTT against Folr4 | inactive: -0.571
GCAAAGGAUAUGCAAUUGGTT against Bap1 | inactive: -0.105
GGCUGAAAAACUCAAUUAUTT against Boll | inactive: 0.616

Sequence | z-score
GGUAAACAUCACUCCUUGGTT against Actrt1 | inactive: 0.551
GGAUGCUGACAAAAAUAUCTT against Iars | inactive: -2.12
GGUGGAAUUGAAGAGUUCATT against Rcor3 | inactive: 1.82
GGUCCGGUCUCAGACUUCATT against Rabl4 | inactive: -1.09
GGUAAUUACUUUCAUAAGGTT against Txnrd1 | inactive: 0.761
CCUUGGUUUUCCCACUUCATT against 8030411F24Rik | inactive: 0.0406
GCAUUCAGCCAUCGUAAUCTT against 5730409G15Rik | inactive: -1.44
CCGUUGUUUACCUUGUGGCTT against 5033406L14Rik | inactive: -0.576
GGUGUCAUCCCUGAAAGAGTT against Tert | inactive: -2.33
GGUAGACCCUUUUUUUAAGTT against Tgm4 | inactive: 0.419
GGCAUUCUGAAAAAAUAGCTT against Rb1cc1 | inactive: 0.572
GGGCUGUGAUCAAACAUGGTT against 5430425C04Rik | inactive: -1.32
GGACUUUGCCAUUCUUCACTT against Krtap6-1 | inactive: 0.291
GCUUGGUGGAAAUUUCUUGTT against ORF5 | inactive: -0.11
GGAACACUACCGUUUUGGGTT against Ehd2 | inactive: 0.579
GGAGCAAAGGAACAUGAAGTT against Slc12a6 | inactive: 1.3
CCUUCACAAGCAAUAAGUCTT against Bach | inactive: 0.00503
GCAACUUACUGGUAACUCCTT against Slc7a11 | inactive: -0.227
GGCAAUGGUUCAGGAGAAATT against Col25a1 | inactive: -1.38
GGAUUUGUUAAAGAUUCCGTT against Cpd | inactive: -0.785
UCCAGAAAGAGAAAGCCAUTT against Ifna6T | inactive: 0.00573
GGUCUUCCGAUGAACAAUCTT against Etfdh | inactive: -1.16
GCCAGGUUGACAAUGGUUCTT against Ttf2 | inactive: -0.444
GGAUAUCAUCAGUUUGGUUTT against LOC435565 | inactive: -0.913
CCACUGGUGGACAAACUUUTT against BC048546 | inactive: -0.395
GGCAUUUCUUGUGUUACGUTT against 1110018J18Rik | inactive: -0.0755

Shown as comma-separated lines: part of the list above.
Sequence,z-score
GUCUCCACUGGUGCCUAUATT against 2310056K19Rik,inactive: -1.53
GCCAUUCUUUGAAAAGAGGTT against 1190002A17Rik,inactive: 0.391
